The values that follow come from patent US20250296954 (published 2025).

The nature of this series: Fmoc solid-phase peptide synthesis in flow; pentafluorophenyl ester (Fmoc-AA-OPfp). Particulars: coupling step.

In turn, Fmoc-L-Ala-L-Ala-L-Ala-L-Ala-OtBu returned a step yield of 92%.
